The values that follow come from the supplement of paper PMC12823440, “Inhibitors supercharge kinase turnover through native proteolytic circuits” (Nature, 2025).

The chains behind the UniProt entries cited, without tags or fusion partners. Where a name states a change or a piece, a line headed by the entry shows the natural chain unless it says otherwise.
UniProt Q15208: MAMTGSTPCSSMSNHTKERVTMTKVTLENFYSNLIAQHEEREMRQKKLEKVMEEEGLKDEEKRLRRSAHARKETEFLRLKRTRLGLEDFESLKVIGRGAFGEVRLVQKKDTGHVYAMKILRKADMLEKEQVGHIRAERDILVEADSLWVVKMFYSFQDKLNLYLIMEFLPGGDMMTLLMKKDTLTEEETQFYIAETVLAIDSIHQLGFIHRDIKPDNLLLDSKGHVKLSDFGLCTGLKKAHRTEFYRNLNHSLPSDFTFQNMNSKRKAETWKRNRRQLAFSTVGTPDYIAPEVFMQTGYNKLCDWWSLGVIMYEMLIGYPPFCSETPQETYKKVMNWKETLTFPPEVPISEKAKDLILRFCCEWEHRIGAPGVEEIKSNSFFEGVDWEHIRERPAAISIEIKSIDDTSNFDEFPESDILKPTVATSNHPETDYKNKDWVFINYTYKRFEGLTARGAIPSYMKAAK
UniProt P42680: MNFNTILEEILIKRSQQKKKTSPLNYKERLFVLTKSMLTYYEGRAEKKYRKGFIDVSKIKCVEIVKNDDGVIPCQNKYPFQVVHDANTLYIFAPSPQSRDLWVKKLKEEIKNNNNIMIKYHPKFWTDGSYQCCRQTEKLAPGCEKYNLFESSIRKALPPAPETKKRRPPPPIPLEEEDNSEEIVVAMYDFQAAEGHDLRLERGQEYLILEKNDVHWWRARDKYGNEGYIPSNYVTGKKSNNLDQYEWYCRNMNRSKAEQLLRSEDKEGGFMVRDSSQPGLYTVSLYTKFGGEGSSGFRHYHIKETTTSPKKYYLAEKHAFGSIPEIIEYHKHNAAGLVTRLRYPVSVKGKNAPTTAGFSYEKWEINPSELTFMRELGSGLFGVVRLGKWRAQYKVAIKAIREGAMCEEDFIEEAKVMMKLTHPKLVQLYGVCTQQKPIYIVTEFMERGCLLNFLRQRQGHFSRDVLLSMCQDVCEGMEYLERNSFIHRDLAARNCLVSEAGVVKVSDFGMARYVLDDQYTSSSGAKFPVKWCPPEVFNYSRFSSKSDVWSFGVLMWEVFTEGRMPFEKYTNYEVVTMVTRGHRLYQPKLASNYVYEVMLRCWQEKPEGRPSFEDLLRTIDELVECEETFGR
UniProt P29597: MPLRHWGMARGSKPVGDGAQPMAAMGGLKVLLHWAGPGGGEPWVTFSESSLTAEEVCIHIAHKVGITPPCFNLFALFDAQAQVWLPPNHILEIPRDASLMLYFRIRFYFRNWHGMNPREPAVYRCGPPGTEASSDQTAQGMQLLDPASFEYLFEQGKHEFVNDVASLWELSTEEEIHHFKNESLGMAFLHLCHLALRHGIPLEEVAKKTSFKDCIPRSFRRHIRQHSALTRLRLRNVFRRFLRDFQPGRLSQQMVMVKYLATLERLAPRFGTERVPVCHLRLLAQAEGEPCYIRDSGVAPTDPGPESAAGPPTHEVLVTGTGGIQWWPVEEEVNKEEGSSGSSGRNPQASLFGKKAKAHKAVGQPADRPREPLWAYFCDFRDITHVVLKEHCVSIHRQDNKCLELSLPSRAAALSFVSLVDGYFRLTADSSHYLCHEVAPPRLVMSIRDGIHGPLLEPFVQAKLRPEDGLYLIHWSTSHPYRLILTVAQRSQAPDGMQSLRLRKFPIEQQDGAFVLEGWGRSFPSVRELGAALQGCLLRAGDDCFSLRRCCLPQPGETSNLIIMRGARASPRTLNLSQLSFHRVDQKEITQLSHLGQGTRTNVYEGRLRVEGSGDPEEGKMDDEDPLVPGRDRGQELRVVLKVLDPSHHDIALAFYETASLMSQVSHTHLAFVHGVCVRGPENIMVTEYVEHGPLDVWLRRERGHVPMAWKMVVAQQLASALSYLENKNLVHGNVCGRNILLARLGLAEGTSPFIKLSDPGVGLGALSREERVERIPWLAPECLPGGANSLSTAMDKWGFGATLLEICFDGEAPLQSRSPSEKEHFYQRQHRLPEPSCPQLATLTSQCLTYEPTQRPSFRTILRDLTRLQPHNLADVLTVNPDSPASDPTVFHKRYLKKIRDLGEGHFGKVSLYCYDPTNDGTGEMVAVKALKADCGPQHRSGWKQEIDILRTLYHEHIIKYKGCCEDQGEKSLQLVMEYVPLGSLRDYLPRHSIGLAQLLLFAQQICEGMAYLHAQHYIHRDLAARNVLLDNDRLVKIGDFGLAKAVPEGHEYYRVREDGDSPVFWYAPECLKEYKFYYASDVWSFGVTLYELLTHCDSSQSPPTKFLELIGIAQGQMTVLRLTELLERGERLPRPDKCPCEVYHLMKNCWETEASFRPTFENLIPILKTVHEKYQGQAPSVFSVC
UniProt Q6PHR2: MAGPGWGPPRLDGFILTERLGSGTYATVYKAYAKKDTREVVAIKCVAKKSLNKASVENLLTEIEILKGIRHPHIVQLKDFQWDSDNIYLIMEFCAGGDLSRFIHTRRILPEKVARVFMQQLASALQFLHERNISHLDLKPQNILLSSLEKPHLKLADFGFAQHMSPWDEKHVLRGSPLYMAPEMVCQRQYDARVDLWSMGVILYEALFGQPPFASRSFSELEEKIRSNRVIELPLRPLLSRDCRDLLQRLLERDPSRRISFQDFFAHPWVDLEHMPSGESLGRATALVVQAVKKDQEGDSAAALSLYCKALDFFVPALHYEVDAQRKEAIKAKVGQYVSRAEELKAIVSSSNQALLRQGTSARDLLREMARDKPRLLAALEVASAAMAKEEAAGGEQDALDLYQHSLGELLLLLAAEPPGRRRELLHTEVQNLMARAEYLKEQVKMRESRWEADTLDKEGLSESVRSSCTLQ
UniProt P07947, whole entry, looked up: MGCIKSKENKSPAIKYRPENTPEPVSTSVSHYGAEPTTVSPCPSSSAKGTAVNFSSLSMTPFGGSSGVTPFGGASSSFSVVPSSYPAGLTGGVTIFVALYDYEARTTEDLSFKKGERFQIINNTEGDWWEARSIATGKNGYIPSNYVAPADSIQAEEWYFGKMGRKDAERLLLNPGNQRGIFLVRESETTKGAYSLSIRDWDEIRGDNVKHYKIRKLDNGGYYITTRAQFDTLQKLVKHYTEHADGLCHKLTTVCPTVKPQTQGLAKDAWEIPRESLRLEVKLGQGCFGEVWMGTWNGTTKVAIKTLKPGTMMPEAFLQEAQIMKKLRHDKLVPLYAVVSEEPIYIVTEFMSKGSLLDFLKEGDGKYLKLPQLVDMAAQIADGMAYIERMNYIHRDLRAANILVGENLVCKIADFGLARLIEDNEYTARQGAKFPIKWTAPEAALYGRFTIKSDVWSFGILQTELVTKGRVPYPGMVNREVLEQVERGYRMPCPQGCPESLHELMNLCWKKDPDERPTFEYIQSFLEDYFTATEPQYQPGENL
UniProt P43403: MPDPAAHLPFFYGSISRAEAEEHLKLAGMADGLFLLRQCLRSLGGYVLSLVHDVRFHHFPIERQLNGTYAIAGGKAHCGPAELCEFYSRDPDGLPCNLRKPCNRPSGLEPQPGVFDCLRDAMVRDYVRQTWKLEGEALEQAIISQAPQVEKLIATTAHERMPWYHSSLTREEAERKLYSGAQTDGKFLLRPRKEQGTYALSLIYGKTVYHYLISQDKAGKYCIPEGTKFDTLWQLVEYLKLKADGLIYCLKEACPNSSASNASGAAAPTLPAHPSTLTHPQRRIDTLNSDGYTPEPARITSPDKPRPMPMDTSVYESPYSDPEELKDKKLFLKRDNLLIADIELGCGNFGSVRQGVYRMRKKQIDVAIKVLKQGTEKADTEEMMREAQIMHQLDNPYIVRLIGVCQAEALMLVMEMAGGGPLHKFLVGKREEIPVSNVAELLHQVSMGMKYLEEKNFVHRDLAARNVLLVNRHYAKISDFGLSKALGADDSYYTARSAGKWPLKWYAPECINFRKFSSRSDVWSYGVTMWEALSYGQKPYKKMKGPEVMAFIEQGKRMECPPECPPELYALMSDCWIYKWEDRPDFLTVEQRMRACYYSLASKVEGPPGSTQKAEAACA
UniProt P00519, whole entry: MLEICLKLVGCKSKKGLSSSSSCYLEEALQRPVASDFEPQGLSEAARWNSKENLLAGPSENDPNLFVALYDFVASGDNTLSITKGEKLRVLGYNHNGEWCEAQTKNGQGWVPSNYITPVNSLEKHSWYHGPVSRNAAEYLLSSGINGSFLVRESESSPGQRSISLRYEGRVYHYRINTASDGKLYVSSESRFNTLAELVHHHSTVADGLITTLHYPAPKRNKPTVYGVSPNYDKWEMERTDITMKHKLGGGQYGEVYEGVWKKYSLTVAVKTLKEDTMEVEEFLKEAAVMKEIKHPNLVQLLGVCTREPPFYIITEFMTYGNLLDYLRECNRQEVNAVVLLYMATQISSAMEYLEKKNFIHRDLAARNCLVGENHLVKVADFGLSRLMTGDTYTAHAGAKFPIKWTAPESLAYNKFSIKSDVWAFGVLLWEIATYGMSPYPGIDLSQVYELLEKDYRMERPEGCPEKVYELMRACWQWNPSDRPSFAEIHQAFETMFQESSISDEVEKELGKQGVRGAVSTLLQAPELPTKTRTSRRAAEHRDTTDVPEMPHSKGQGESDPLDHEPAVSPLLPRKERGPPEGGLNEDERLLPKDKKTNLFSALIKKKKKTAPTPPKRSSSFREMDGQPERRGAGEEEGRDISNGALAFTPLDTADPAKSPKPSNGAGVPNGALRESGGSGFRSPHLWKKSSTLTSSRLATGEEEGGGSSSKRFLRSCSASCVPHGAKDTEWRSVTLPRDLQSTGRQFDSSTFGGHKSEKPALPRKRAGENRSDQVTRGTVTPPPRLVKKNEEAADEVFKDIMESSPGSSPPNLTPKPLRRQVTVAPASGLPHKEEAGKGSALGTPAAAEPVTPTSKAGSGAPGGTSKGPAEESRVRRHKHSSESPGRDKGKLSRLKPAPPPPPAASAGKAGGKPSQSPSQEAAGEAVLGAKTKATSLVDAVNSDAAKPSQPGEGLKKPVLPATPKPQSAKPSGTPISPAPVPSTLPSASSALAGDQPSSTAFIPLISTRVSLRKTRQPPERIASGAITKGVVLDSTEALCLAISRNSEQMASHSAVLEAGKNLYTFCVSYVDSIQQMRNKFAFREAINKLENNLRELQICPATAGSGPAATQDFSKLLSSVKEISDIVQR
UniProt P31749: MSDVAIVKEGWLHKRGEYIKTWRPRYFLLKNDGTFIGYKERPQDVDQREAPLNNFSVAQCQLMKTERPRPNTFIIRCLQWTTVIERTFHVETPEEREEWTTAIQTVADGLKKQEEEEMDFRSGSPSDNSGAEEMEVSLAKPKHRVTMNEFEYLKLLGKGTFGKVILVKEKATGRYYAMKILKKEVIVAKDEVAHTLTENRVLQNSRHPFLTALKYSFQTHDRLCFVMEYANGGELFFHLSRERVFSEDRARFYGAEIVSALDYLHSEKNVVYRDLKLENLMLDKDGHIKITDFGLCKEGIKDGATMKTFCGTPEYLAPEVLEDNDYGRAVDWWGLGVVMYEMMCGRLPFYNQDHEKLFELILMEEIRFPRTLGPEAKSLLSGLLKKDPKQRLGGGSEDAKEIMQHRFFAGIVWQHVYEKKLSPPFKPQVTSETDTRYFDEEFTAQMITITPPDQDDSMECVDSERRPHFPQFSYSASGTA

Each structure is given as a SMILES string. Where a name gives a salt, the structure may show the parent alone. This is one part of the list. Hit calls seldom repeat between salt and free forms of one compound.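 In K562 cells expressing nanoluciferase-fused kinases, luminescence was recorded at 4 h intervals between 2 and 18 h, normalized as percent of control with DMSO at 100% and a positive control at 0%. A significant (2 sigma) signal drop marks a time point as decreased. The authors' rule for a hit is not shown and takes in more than the number of time points.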

Holding throughout (conditions): K562; 2-18 h
The target of experiment [1] is STK38 (UniProt Q15208). Description: kinase-Nluc reporter destabilization hit call (1 = scored as downregulated) (binary); higher = compound decreases kinase abundance.
The target in experiment [2] is SYK (UniProt P43405). Described as above.
Experiment [3] addresses TEC (UniProt P42680). The description is as above.
Experiment [4] deals with TYK2 (UniProt P29597). Described as above.
Experiment [5] has as its target ULK3 (UniProt Q6PHR2). Described as above.
Experiment [6] concerns the target YES1 (UniProt P07947). Described as above.
For experiment [7], the target named is ZAK (UniProt Q9NYL2). The description is as above.
In experiment [8] the target is ZAP70 (UniProt P43403). The experiment is described as above.
For experiment [9], the target named is ABL1 (UniProt P00519). Kind of experiment: number of time points (of 5) at which kinase-Nluc abundance scored as decreased, DMSO-normalised (count); higher = more persistent destabilization.
Experiment [10] addresses AKT1 (UniProt P31749). The description is as above.

For the molecule `O=C(Nc1cccnc1)c1cc(C(=O)c2c(F)cccc2Br)c[nH]1` (10 µM), the “kinase-Nluc reporter destabilization hit call” value in experiment [1], in experiment [2], in [3], in [4], in experiment [5] and in [6] was inactive: 0 each time. The “kinase-Nluc reporter destabilization hit call” value in [7] and in [8] was inactive: 0 each time. Besides, the “number of time points” value in experiment [9] and in [10] was 0 in each case.
For the molecule `Cn1nccc1Nc1nccc(-c2cc3c(s2)C(C)(C)N(CCN2CCOCC2)C3=O)n1` (10 µM), the “kinase-Nluc reporter destabilization hit call” value in experiment [1], in [2], in experiment [3], in experiment [4], in [5] and in [6] was inactive: 0 in each case. In addition, the “kinase-Nluc reporter destabilization hit call” value in experiment [7] and in [8] was inactive: 0 in each case. Further, the “number of time points” value in experiment [9] and in experiment [10] was 0 throughout.
On to `O=C1NC(=O)C(=Cc2ccc(-c3ccc(F)cc3)o2)S1` (stereo in doubt) (10 µM), for which the “kinase-Nluc reporter destabilization hit call” value in experiment [1], in experiment [2], in [3], in experiment [4], in experiment [5] and in [6] was inactive: 0 in each case. In addition, the “kinase-Nluc reporter destabilization hit call” value in [7] and in experiment [8] was inactive: 0 in each case. The “number of time points” value in [9] and in experiment [10] was 0 in each case.
For the molecule `CCn1c(=O)c(-c2ccc(-c3cncc(C)n3)cc2Cl)cc2cnc(NCCC3CCN(C)CC3)nc21` (10 µM), the “kinase-Nluc reporter destabilization hit call” value in experiment [1], in experiment [2], in experiment [3], in [4], in [5] and in experiment [6] was inactive: 0 in each case. Moreover, the “kinase-Nluc reporter destabilization hit call” value in [7] and in experiment [8] was inactive: 0 throughout. Further, the “number of time points” value in [9] and in experiment [10] was 0 each time.
Regarding `CCn1c(-c2nonc2N)nc2cnc(Oc3cccc(NC(=O)c4ccc(OCCN5CCOCC5)cc4)c3)cc21` (10 µM), the “kinase-Nluc reporter destabilization hit call” value in experiment [1], in experiment [2], in experiment [3], in [4], in experiment [5] and in experiment [6] was inactive: 0 each time. Besides, the “kinase-Nluc reporter destabilization hit call” value in [7] and in experiment [8] was inactive: 0 throughout. Also, the “number of time points” value in experiment [9] and in experiment [10] was 0 each time.
On to `NCc1ccc(Nc2ncc(F)c(Nc3ccccc3)n2)cc1` (10 µM), for which the “kinase-Nluc reporter destabilization hit call” value in [1], in experiment [2], in experiment [3], in experiment [4], in experiment [5] and in [6] was inactive: 0 in each case. Further, the “kinase-Nluc reporter destabilization hit call” value in experiment [7] and in experiment [8] was inactive: 0 in each case. In addition, the “number of time points” value in [9] and in experiment [10] was 0 throughout.
For `C=CC(=O)Nc1cccc(C)c1Nc1ncc2cc(-c3c(Cl)c(OC)cc(OC)c3Cl)ccc2n1` (2.5 µM), the “kinase-Nluc reporter destabilization hit call” value in experiment [1], in experiment [2], in experiment [3], in experiment [4], in experiment [5] and in [6] was inactive: 0 in each case. Besides, the “kinase-Nluc reporter destabilization hit call” value in experiment [7] and in experiment [8] was inactive: 0 each time. Besides, the “number of time points” value in experiment [9] came to 2; in [10] it was 0.
Turning to `C[C@@H]1O[C@@H](O[C@H]2[C@H](Oc3cc(O)c4c(=O)cc(-c5ccc(O)cc5)oc4c3)O[C@H](CO)[C@@H](O)[C@@H]2O)[C@H](O)[C@H](O)[C@H]1O` [Rhoifolin] (10 µM), the “kinase-Nluc reporter destabilization hit call” value in [1], in experiment [2], in [3], in experiment [4], in experiment [5] and in experiment [6] was inactive: 0 each time. Further, the “kinase-Nluc reporter destabilization hit call” value in [7] and in [8] was inactive: 0 in each case. Also, the “number of time points” value in [9] and in experiment [10] was 0 throughout.
Take `CN1CCN(c2ccc(C(=O)Nc3cc(-c4cccc(NS(=O)(=O)c5ccccc5)c4)[nH]n3)cc2)CC1` [BPR1J-097 Hydrochloride] (2.5 µM): the “kinase-Nluc reporter destabilization hit call” value in experiment [1], in [2], in experiment [3], in experiment [4], in [5] and in [6] was inactive: 0 throughout. Also, the “kinase-Nluc reporter destabilization hit call” value in experiment [7] and in experiment [8] was inactive: 0 in each case. The “number of time points” value in [9] and in experiment [10] was 0 in each case.
As to `Cc1ccc2nc(NC(=O)CSc3nc4c(c(=O)n3-c3ccccc3)SCC4)sc2c1` (2 µM), the “kinase-Nluc reporter destabilization hit call” value in experiment [1], in experiment [2], in experiment [3], in experiment [4], in experiment [5] and in experiment [6] was inactive: 0 each time. The “kinase-Nluc reporter destabilization hit call” value in experiment [7] and in experiment [8] was inactive: 0 throughout. Further, the “number of time points” value in experiment [9] and in [10] was 0 each time.
For the molecule `O=C(Nc1ccc(F)cc1F)[C@H](NC(=S)Nc1cc(C(F)(F)F)cc(C(F)(F)F)c1)c1ccccc1` (2.5 µM), the “kinase-Nluc reporter destabilization hit call” value in experiment [1], in [2], in [3], in experiment [4], in experiment [5] and in experiment [6] was inactive: 0 each time. The “kinase-Nluc reporter destabilization hit call” value in experiment [7] and in [8] was inactive: 0 in each case. Moreover, the “number of time points” value in experiment [9] and in [10] was 0 throughout.
Turning to `CC(=O)N1CCN(c2cc(-c3cc(C(F)(F)F)c4c(N)ncnn34)ccc2C#N)C(=O)C1(C)C` (10 µM), the “kinase-Nluc reporter destabilization hit call” value in experiment [1], in experiment [2], in experiment [3], in [4], in experiment [5] and in [6] was inactive: 0 each time. Besides, the “kinase-Nluc reporter destabilization hit call” value in [7] and in experiment [8] was inactive: 0 each time. Further, the “number of time points” value in experiment [9] and in experiment [10] was 0 throughout.
Take `O=C(CNC(=O)c1ccc(-c2ccccc2)cc1)NC1CCCc2ccccc21` (stereo not given) [TAO Kinase inhibitor 1] (10 µM): the “kinase-Nluc reporter destabilization hit call” value in [1], in experiment [2], in [3], in [4], in experiment [5] and in [6] was inactive: 0 in each case. In addition, the “kinase-Nluc reporter destabilization hit call” value in experiment [7] and in experiment [8] was inactive: 0 throughout. In addition, the “number of time points” value in experiment [9] and in [10] was 0 in each case.
Consider `COCCOc1cnc(Sc2cc(C)c(-c3csc(NC(=O)c4ccncc4)n3)c(C)c2)cn1` [T-1101 (tosylate)] (2.5 µM), for which the “kinase-Nluc reporter destabilization hit call” value in [1], in [2], in experiment [3], in experiment [4], in [5] and in experiment [6] was inactive: 0 in each case. Besides, the “kinase-Nluc reporter destabilization hit call” value in experiment [7] and in experiment [8] was inactive: 0 throughout. Further, the “number of time points” value in experiment [9] and in experiment [10] was 0 each time.
Consider `OC[C@H]1O[C@@H](Oc2cc3c(O)cc(O)cc3[o+]c2-c2cc(O)c(O)c(O)c2)[C@H](O)[C@@H](O)[C@@H]1O` [Delphinidin 3-glucoside (chloride)] (10 µM), for which the “kinase-Nluc reporter destabilization hit call” value in [1], in experiment [2], in experiment [3], in experiment [4], in [5] and in [6] was inactive: 0 each time. Besides, the “kinase-Nluc reporter destabilization hit call” value in experiment [7] and in [8] was inactive: 0 in each case. Also, the “number of time points” value in [9] and in experiment [10] was 0 in each case.
